For at least one compound, name, drawing or mass did not settle the structure.
System: eosinophil
Assay: Eosinophil count in peripheral blood of the prostate cancer subject
Settings: Claritin in addition to Allegra from July 1, 2016

## CCOC(=O)N1CCC(=C2c3ccc(Cl)cc3CCc3cccnc32)CC1 [Claritin]
  eosinophil count in peripheral blood, change in words: started to decrease
